Data: the supplement of paper PMC3334620
In all, about 33,000 sequences were measured (“E-score (-0.5 to 0.5)”: median about -0.016, highest 2% from about 0.3 on). The list shows a part of the results.

Molecular target: T1, Yer184c (UniProt P39961)
T1 sequence: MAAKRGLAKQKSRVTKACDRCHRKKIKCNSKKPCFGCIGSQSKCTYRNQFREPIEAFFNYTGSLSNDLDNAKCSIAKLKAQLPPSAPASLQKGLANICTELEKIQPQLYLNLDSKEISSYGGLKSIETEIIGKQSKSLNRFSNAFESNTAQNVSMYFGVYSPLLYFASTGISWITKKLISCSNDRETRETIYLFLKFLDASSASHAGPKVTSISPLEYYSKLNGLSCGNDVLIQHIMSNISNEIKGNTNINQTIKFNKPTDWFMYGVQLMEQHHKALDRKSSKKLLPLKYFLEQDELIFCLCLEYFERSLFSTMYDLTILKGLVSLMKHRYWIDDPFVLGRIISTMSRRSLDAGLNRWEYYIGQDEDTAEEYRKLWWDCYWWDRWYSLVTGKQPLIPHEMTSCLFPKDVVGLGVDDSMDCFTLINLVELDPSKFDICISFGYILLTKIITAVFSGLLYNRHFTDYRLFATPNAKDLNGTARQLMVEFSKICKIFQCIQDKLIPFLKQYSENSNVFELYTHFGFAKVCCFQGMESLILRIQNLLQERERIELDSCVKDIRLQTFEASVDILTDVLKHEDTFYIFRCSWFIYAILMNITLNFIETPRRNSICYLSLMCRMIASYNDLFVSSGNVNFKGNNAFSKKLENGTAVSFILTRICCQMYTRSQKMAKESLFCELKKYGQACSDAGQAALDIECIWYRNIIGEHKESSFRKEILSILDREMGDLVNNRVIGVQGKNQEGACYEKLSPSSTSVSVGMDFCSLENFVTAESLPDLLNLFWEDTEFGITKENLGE
Assay: PBM E-score (8-mer binding enrichment) (E-score (-0.5 to 0.5)); higher = stronger / more preferred TF binding
Settings: protein concentration: 100 nM; construct: GST-full length
Procedure, shortened: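 The E-score, a modified Wilcoxon-Mann-Whitney statistic, was computed by the Universal PBM Analysis Suite for every ungapped eight-base word pooled with its reverse complement. Scans behind it were normalised with masliner after bound GST-tagged yeast transcription factors were detected with fluorescent anti-GST. The proteins, at about 100-200 nM, had been applied to universal all-10-mer Agilent arrays made double-stranded by primer extension.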

Sequence	PBM E-score
CGTCATTC	0.17
AACCAAGG	-0.0527
GCCTCAAA	-0.0686
AAAGGCGT	-0.22
CTGCAGGC	-0.229
CTATGCCA	-0.245
GCTAAACA	0.113
GGTTATAA	0.0276
CAACCACG	-0.0348
CGAGGATA	-0.0721
ATCGTGGA	0.0447
AAGCCTAT	-0.104
GAAGCGAC	0.0694
CTCGATTA	0.0553
CGGGCGTC	0.0767
CGGAGAGC	0.116
GAAAACTA	0.0973
ATATGGCC	-0.0384
AGCTAAAT	-0.0985
AGAGTTGC	0.0599
GGAAACAC	0.208
ACGTGGCT	-0.235
GCAAGGCA	-0.0428
AACACACG	-0.00676
TGCACCAA	-0.291

Sequence	PBM E-score
CATACACC	0.00657
TATGTTCA	0.184
AGGCTGCC	-0.125
AACGTTGA	0.0798
CAAGGGTA	-0.254
CGATTGTA	0.16
ATTGCCTC	0.00377
GCTCGCCA	-0.0673
CATTTCAG	0.0207
GCCGCAGA	0.0738
ACTGGTAA	0.0562
GCTCCCAA	-0.107
AAACGTGA	0.00433
AGCAGTTG	-0.0709
AATGCTTG	-0.113
GTCCGCCA	-0.0698
TTGCTAAA	0.0301
GCAGATGC	-0.149
CACAGGCG	-0.21
AAGCCAAT	-0.124
TAACAAAA	0.219
GGCCACAC	-0.0153
TCGTTGCA	-0.0315
ACATTGTA	-0.0761
CACTCCAC	-0.2

Sequence	PBM E-score
AGACTCCT	-0.225
TCACGAAA	0.173
ATCTAGGC	-0.236
CGCCGGCC	0.35
ACGCTTCG	-0.109
ACCGCGGC	0.344
CAACCTGC	-0.0979
ACTACCGC	0.126
AAGGCTCG	-0.187
CCCTTCGG	0.0548
AGACTCCC	-0.317
TGCCTCAA	-0.0229
CCTATTAC	-0.2
CGCGATCA	-0.0459
CTCTCCAC	-0.286
GCGAATGA	0.149
ACGTTTCT	-0.0299
AATCCAAC	-0.0638
CACCTCTG	-0.253
ACGACCCT	-0.201
AGGTGGTA	-0.0629
CGACGAAC	0.0631
ACTTTCTG	0.137
CGCTTATA	0.0756
CGTCTTTC	-0.0906

No new results follow: entries from further up.
Sequence	PBM E-score
ATATGGCC	-0.0384
AGCTAAAT	-0.0985
AGAGTTGC	0.0599
GGAAACAC	0.208
ACGTGGCT	-0.235
GCAAGGCA	-0.0428
AACACACG	-0.00676
TGCACCAA	-0.291
CATACACC	0.00657
TATGTTCA	0.184
AGGCTGCC	-0.125
AACGTTGA	0.0798
CAAGGGTA	-0.254
CGATTGTA	0.16
ATTGCCTC	0.00377
GCTCGCCA	-0.0673
CATTTCAG	0.0207
GCCGCAGA	0.0738
ACTGGTAA	0.0562
GCTCCCAA	-0.107
AAACGTGA	0.00433
AGCAGTTG	-0.0709
AATGCTTG	-0.113
GTCCGCCA	-0.0698
TTGCTAAA	0.0301
GCAGATGC	-0.149
CACAGGCG	-0.21
AAGCCAAT	-0.124
TAACAAAA	0.219
GGCCACAC	-0.0153
TCGTTGCA	-0.0315
ACATTGTA	-0.0761
CACTCCAC	-0.2
AGACTCCT	-0.225
TCACGAAA	0.173
ATCTAGGC	-0.236
CGCCGGCC	0.35
ACGCTTCG	-0.109
ACCGCGGC	0.344
CAACCTGC	-0.0979
ACTACCGC	0.126
AAGGCTCG	-0.187
CCCTTCGG	0.0548

More entries

Sequence	PBM E-score
AAGCAAAG	-0.152
CTGTGTCA	-0.0684
AGATGCCC	-0.09
GCAGTAGA	-0.109
CGACAGAA	0.149
CGGCTACG	0.154
ACAAAGGG	-0.238
GAGTCTAA	0.0375
CATCCGAG	0.212
GGCACACA	0.0566
CGTGTTAA	0.0721
GCTTTCAA	0.131
CGTGCCAC	-0.183
AGAAGTCA	0.0449
ATACTGTC	0.0534
CTCCTGCA	-0.21
AGGCGCGC	0.0287
AGAGAACG	0.0412
ATGTTTAA	0.162
GCCAGGGA	-0.284
ATCACAAA	-0.0606
CACAGCCG	0.186
AGTCCTTA	-0.107
CCGTTAAA	0.157
CTCAGAAC	0.0913

Sequence	PBM E-score
AACATCGA	0.0284
ATTGCTAG	0.0345
ACAGGCTC	-0.186
GGAGCTCA	-0.0805
CGGTTCAA	0.0335
GGGGTAAC	-0.138
AGCGTGGA	-0.227
ATGCGCAT	0.0844
CGATGAGC	0.0433
AATAGTAC	0.149
ATCGGGCG	-0.0399
CGTTTGAA	0.0743
CGTACGAG	-0.154
GCGTGAAC	-0.065
AAGGTGGC	-0.159
CTATGAAG	0.0367
ATACGTTC	-0.219
CAAATCGA	-0.0226
GGTGCTTA	-0.0113
ACTCTATC	-0.096
ACCCGGCA	0.187
GACGCCGC	0.0636
CCGCAATA	0.151
CAACAAAG	0.0753
ACAGTACG	-0.0206

Sequence	PBM E-score
GATACGAA	0.0954
ATTTTGCG	0.109
GCGCCCCC	-0.383
CCGTCGAG	0.197
AAATAATT	0.253
AAGGGTTA	-0.125
GCTCTGTA	-0.0523
AGTAAAAA	0.149
AGTAGGGA	-0.0279
CTACGCTC	-0.267
ATCTCCTC	-0.11
AATATTCC	0.342
AATGAACC	0.055
ACCACCGT	-0.0332
ACGGGGGG	-0.35
AGCCTCAC	-0.218
CGGCGCAC	0.216
CCGAATGA	0.321
ACGAATCA	0.0706
CGGCCATC	0.0642
AATATGCT	0.0287
CAATCCTC	-0.113
AGAAGTTG	-0.133
AGTGGGGG	-0.385
ATGGAGCC	-0.203

Sequence	PBM E-score
TAATGTGA	0.148
CACCGGCG	0.238
AATACTGT	0.188
AACCTGAT	0.061
AATATAAG	0.297
CCAGCTTA	-0.0115
GGCAGAGA	0.0289
TGACGCAA	-0.173
AACTGCAT	0.00033
AACTCCTA	-0.0126
AGATATTG	0.0412
GAGGACTC	-0.298
CCGTTTGC	0.0779
CAAGGCAC	-0.205
GTAGTTCA	-0.0304
CCCCGGGC	0.217
CTGTGGAC	-0.252
TATAAGCA	0.0411
GTACCTGA	0.0813
AAGCACTG	-0.0258
CAGTTTTA	-0.0165
ACTAAAGA	-0.0181
